Results deposited as PubChem BioAssay AID1259254 (NCATS, 2017)

Purpose: 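Gene knock-downs that lead to re-replication, shown by excess G2 DNA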 (primary screen)
System: human HCT116 colorectal cancer cells
Knock-down reagent: single siRNA against human genes
Duration: 3 days
Read-out: 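Imaged Hoechst DNA stain sorts each cell into a cycle phase by DNA amount; per plate, G2 fraction set to 0% for non-targeting and 100% for GMNN siRNA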
Direction: G2 robust z-score and G2 cells, % of GMNN control: higher = more G2 cells, more excess DNA replication
Active means: 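Active siRNAs have a G2 robust z of 5 or more median absolute deviations over the median, which in these data means about 38% or higher of GMNN control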
The whole screen tested about 59,000 reagents; below is an unselected part. About 1,550 of them (2.6%) were called active. 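G2 share is only a proxy for re-replication; each gene was hit by three separate siRNAs, and active genes were retested.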 The numbers tell different reagents against one gene apart. Not all columns of the deposit are shown. The record does not give: the amount of reagent.

{"gene symbol":"MAP3K11","reagent no.":1,"G2 robust z-score":-0.659,"G2 cells, % of GMNN control":-1.67,"Outcome":"inactive"}
{"gene symbol":"MAP3K11","reagent no.":2,"G2 robust z-score":1.3,"G2 cells, % of GMNN control":12.1,"Outcome":"inactive"}
{"gene symbol":"MAP3K11","reagent no.":3,"G2 robust z-score":0.196,"G2 cells, % of GMNN control":4.34,"Outcome":"inactive"}
{"gene symbol":"FRAS1","reagent no.":1,"G2 robust z-score":2.51,"G2 cells, % of GMNN control":20.6,"Outcome":"inactive"}
{"gene symbol":"FRAS1","reagent no.":2,"G2 robust z-score":-0.82,"G2 cells, % of GMNN control":-2.8,"Outcome":"inactive"}
{"gene symbol":"FRAS1","reagent no.":3,"G2 robust z-score":-0.353,"G2 cells, % of GMNN control":0.483,"Outcome":"inactive"}
{"gene symbol":"MPHOSPH8","reagent no.":1,"G2 robust z-score":-1.18,"G2 cells, % of GMNN control":-5.37,"Outcome":"inactive"}
{"gene symbol":"MPHOSPH8","reagent no.":2,"G2 robust z-score":2.73,"G2 cells, % of GMNN control":22.2,"Outcome":"inactive"}
{"gene symbol":"MPHOSPH8","reagent no.":3,"G2 robust z-score":1.34,"G2 cells, % of GMNN control":12.4,"Outcome":"inactive"}
{"gene symbol":"ZFP92","reagent no.":1,"G2 robust z-score":-0.151,"G2 cells, % of GMNN control":1.91,"Outcome":"inactive"}
{"gene symbol":"ZFP92","reagent no.":2,"G2 robust z-score":-0.571,"G2 cells, % of GMNN control":-1.05,"Outcome":"inactive"}
{"gene symbol":"ZFP92","reagent no.":3,"G2 robust z-score":1.1,"G2 cells, % of GMNN control":10.7,"Outcome":"inactive"}
{"gene symbol":"PKNOX1","reagent no.":1,"G2 robust z-score":0.646,"G2 cells, % of GMNN control":7.51,"Outcome":"inactive"}
{"gene symbol":"PKNOX1","reagent no.":2,"G2 robust z-score":0.531,"G2 cells, % of GMNN control":6.71,"Outcome":"inactive"}
{"gene symbol":"PKNOX1","reagent no.":3,"G2 robust z-score":0.123,"G2 cells, % of GMNN control":3.83,"Outcome":"inactive"}
{"gene symbol":"AFMID","reagent no.":1,"G2 robust z-score":-0.952,"G2 cells, % of GMNN control":-3.73,"Outcome":"inactive"}
{"gene symbol":"AFMID","reagent no.":2,"G2 robust z-score":1.32,"G2 cells, % of GMNN control":12.3,"Outcome":"inactive"}
{"gene symbol":"AFMID","reagent no.":3,"G2 robust z-score":0.03,"G2 cells, % of GMNN control":3.18,"Outcome":"inactive"}

Reformatted: 2 of the entries above
{"gene symbol": "FRAS1", "reagent no.": 2, "G2 robust z-score": -0.82, "G2 cells, % of GMNN control": -2.8, "Outcome": "inactive"}
{"gene symbol": "FRAS1", "reagent no.": 3, "G2 robust z-score": -0.353, "G2 cells, % of GMNN control": 0.483, "Outcome": "inactive"}
